Reference: publication PMC3531493, “Inhibition of a NEDD8 Cascade Restores Restriction of HIV by APOBEC3G” (PLoS Pathogens, 2012)
These are yes or no findings as the source states them, for the method shown.

The chains behind the UniProt entries cited, without tags or fusion partners. Residues count along the entry.
UniProt Q9UBF6, residues 44-113: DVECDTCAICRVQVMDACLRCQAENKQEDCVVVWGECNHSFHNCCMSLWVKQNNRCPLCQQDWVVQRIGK
UniProt P61081: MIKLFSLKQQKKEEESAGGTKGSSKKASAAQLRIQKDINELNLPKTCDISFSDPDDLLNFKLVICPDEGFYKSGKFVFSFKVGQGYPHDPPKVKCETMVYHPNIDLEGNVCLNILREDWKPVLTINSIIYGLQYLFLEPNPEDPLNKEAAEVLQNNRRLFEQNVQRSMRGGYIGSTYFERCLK

Target: RBX2 RING domain (44-113) (UniProt Q9UBF6)
Assay: NMR titration; 15N-HSQC of 50 µM 15N-labelled RBX2 RING with unlabelled E2 added (∼100 µM in Fig. 3D; increasing concentrations in Fig. 5D); 20°C; 100 mM NaCl, 1 mM DTT, 25 mM HEPES pH 7.5; both purified

binding: no binding (tested: ∼100 µM)
Substance: UBE2M, full-length (from UniProt P61081 1-183) (enzyme)
